Taken from: PubChem BioAssay AID1224830 (NIAID, 2016)

- Screen: 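Regulators of TLR4 signalling towards TNF-alpha in macrophage-like cells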 (primary screen)
- Cell system: human THP-1 monocytic leukaemia cells, TNF dual-luciferase reporter clone, PMA-differentiated to macrophage-like cells
- Knock-down reagent: siRNA pool against human genes, 50 nM
- Time to read-out: LPS for 4 h, given about 3 days after siRNA transfection
- Challenge: bacterial LPS (TLR4 ligand), 10 ng/ml
- Measurement: 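Ratio of firefly to renilla light, scaled to the plate median and expressed as a robust z-score per replicate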
- Direction: TNF reporter robust z-score: higher = stronger TNF reporter response to LPS
- Hit rule: 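Each well counts as active if its z-score is over 2.8 or under -1.5; controls are left without a call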
This is a random part of about 18,000 deposited reagents. About 2,900 of all reagents (16%) count as active. 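Calls are made per well; low scores hint the gene aids the LPS response, high scores that it dampens it.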 Repeated entries: four replicate wells of each siRNA pool.

target,TNF reporter robust z-score,Call
RWDD4 (RWD domain containing 4),-1.28,inactive
RWDD4 (RWD domain containing 4),-0.75,inactive
RWDD4 (RWD domain containing 4),-1.14,inactive
RWDD4 (RWD domain containing 4),-1.12,inactive
SIM2 (SIM bHLH transcription factor 2),-0.78,inactive
SIM2 (SIM bHLH transcription factor 2),-0.82,inactive
SIM2 (SIM bHLH transcription factor 2),-0.55,inactive
SIM2 (SIM bHLH transcription factor 2),-0.27,inactive
NSMCE3 (NSE3 component of SMC5/6 complex),-0.34,inactive
NSMCE3 (NSE3 component of SMC5/6 complex),0.62,inactive
NSMCE3 (NSE3 component of SMC5/6 complex),1.31,inactive
NSMCE3 (NSE3 component of SMC5/6 complex),1.68,inactive
L3HYPDH (trans-L-3-hydroxyproline dehydratase),-0.26,inactive
L3HYPDH (trans-L-3-hydroxyproline dehydratase),-0.34,inactive
L3HYPDH (trans-L-3-hydroxyproline dehydratase),0,inactive
L3HYPDH (trans-L-3-hydroxyproline dehydratase),-0.05,inactive
ZNF644 (zinc finger protein 644),5.58,active
ZNF644 (zinc finger protein 644),3.35,active
ZNF644 (zinc finger protein 644),2.23,inactive
ZNF644 (zinc finger protein 644),0.14,inactive
OR2A5 (olfactory receptor family 2 subfamily A member 5),0.02,inactive
OR2A5 (olfactory receptor family 2 subfamily A member 5),0.57,inactive
OR2A5 (olfactory receptor family 2 subfamily A member 5),0.76,inactive
OR2A5 (olfactory receptor family 2 subfamily A member 5),0.92,inactive
TCEAL6 (transcription elongation factor A like 6),-0.74,inactive
TCEAL6 (transcription elongation factor A like 6),-0.84,inactive
TCEAL6 (transcription elongation factor A like 6),0.08,inactive
TCEAL6 (transcription elongation factor A like 6),-0.81,inactive
CD86 (CD86 molecule),-0.61,inactive
CD86 (CD86 molecule),-0.59,inactive
CD86 (CD86 molecule),-0.66,inactive
CD86 (CD86 molecule),-0.5,inactive
MRGPRX2 (MAS related GPR family member X2),0.89,inactive
MRGPRX2 (MAS related GPR family member X2),2.16,inactive
MRGPRX2 (MAS related GPR family member X2),0.81,inactive
MRGPRX2 (MAS related GPR family member X2),1.87,inactive
SECISBP2L (SECIS binding protein 2 like),,inactive
SECISBP2L (SECIS binding protein 2 like),0.46,inactive
SECISBP2L (SECIS binding protein 2 like),0.29,inactive
SECISBP2L (SECIS binding protein 2 like),-0.02,inactive
OR4K15 (olfactory receptor family 4 subfamily K member 15),2.74,inactive
OR4K15 (olfactory receptor family 4 subfamily K member 15),0.81,inactive
OR4K15 (olfactory receptor family 4 subfamily K member 15),0.46,inactive
OR4K15 (olfactory receptor family 4 subfamily K member 15),0.57,inactive
RD3 (RD3 regulator of GUCY2D),-0.97,inactive
RD3 (RD3 regulator of GUCY2D),-0.42,inactive
RD3 (RD3 regulator of GUCY2D),-1.06,inactive
RD3 (RD3 regulator of GUCY2D),-0.81,inactive
CSAG1 (chondrosarcoma associated gene 1),0.75,inactive
CSAG1 (chondrosarcoma associated gene 1),0.38,inactive
CSAG1 (chondrosarcoma associated gene 1),0.57,inactive
CSAG1 (chondrosarcoma associated gene 1),0.22,inactive
OPA3 (outer mitochondrial membrane lipid metabolism regulator OPA3),-0.84,inactive
OPA3 (outer mitochondrial membrane lipid metabolism regulator OPA3),-0.2,inactive
OPA3 (outer mitochondrial membrane lipid metabolism regulator OPA3),-0.66,inactive
OPA3 (outer mitochondrial membrane lipid metabolism regulator OPA3),-0.01,inactive
CSRP1 (cysteine and glycine rich protein 1),0.9,inactive
CSRP1 (cysteine and glycine rich protein 1),1.26,inactive
CSRP1 (cysteine and glycine rich protein 1),1.94,inactive
CSRP1 (cysteine and glycine rich protein 1),0.45,inactive
"PCDHGC5 (protocadherin gamma subfamily C, 5)",-1.4,inactive
"PCDHGC5 (protocadherin gamma subfamily C, 5)",-1.1,inactive
"PCDHGC5 (protocadherin gamma subfamily C, 5)",-0.47,inactive
"PCDHGC5 (protocadherin gamma subfamily C, 5)",-0.34,inactive
IQCF2 (IQ motif containing F2),2.09,inactive
IQCF2 (IQ motif containing F2),1.97,inactive
IQCF2 (IQ motif containing F2),1.87,inactive
IQCF2 (IQ motif containing F2),4.59,active
PAQR6 (progestin and adipoQ receptor family member 6),-0.03,inactive
PAQR6 (progestin and adipoQ receptor family member 6),-0.53,inactive
PAQR6 (progestin and adipoQ receptor family member 6),0.08,inactive
PAQR6 (progestin and adipoQ receptor family member 6),0.63,inactive
RRBP1 (ribosome binding protein 1),0.75,inactive
RRBP1 (ribosome binding protein 1),0.58,inactive
RRBP1 (ribosome binding protein 1),-0.17,inactive
RRBP1 (ribosome binding protein 1),-0.49,inactive
